# In the supplement of paper PMC10849652:
# Amino acid sequences for entries named in this document (tags omitted). A change or cut given only in a name is not applied to a line headed by its entry.
# UniProt P40616: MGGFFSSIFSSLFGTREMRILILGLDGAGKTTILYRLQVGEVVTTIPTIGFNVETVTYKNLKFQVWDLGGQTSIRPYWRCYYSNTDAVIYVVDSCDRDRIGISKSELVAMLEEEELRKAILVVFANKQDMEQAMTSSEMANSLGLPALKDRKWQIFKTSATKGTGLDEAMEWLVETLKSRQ
# UniProt Q96AK3: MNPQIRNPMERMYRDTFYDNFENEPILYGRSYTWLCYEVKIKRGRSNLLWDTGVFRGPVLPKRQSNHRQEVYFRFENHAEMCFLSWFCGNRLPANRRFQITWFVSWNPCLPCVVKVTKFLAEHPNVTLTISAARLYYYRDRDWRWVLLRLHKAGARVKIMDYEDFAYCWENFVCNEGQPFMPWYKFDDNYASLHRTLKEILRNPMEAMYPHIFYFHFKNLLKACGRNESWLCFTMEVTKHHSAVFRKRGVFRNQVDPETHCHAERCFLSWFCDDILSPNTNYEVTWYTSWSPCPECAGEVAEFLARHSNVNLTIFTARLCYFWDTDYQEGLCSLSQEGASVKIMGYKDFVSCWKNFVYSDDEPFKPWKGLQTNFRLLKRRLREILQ
# UniProt P32121, whole entry, looked up: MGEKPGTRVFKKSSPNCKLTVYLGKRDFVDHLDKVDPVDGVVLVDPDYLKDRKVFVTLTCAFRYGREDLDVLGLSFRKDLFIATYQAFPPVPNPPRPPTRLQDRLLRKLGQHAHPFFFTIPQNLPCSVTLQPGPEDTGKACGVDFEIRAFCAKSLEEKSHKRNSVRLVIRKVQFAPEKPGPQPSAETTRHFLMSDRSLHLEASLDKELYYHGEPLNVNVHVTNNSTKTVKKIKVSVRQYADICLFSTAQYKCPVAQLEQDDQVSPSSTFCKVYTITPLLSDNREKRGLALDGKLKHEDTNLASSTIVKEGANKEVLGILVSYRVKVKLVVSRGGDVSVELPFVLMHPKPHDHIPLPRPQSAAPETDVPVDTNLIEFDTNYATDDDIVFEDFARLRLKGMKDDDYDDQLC
# UniProt O60306: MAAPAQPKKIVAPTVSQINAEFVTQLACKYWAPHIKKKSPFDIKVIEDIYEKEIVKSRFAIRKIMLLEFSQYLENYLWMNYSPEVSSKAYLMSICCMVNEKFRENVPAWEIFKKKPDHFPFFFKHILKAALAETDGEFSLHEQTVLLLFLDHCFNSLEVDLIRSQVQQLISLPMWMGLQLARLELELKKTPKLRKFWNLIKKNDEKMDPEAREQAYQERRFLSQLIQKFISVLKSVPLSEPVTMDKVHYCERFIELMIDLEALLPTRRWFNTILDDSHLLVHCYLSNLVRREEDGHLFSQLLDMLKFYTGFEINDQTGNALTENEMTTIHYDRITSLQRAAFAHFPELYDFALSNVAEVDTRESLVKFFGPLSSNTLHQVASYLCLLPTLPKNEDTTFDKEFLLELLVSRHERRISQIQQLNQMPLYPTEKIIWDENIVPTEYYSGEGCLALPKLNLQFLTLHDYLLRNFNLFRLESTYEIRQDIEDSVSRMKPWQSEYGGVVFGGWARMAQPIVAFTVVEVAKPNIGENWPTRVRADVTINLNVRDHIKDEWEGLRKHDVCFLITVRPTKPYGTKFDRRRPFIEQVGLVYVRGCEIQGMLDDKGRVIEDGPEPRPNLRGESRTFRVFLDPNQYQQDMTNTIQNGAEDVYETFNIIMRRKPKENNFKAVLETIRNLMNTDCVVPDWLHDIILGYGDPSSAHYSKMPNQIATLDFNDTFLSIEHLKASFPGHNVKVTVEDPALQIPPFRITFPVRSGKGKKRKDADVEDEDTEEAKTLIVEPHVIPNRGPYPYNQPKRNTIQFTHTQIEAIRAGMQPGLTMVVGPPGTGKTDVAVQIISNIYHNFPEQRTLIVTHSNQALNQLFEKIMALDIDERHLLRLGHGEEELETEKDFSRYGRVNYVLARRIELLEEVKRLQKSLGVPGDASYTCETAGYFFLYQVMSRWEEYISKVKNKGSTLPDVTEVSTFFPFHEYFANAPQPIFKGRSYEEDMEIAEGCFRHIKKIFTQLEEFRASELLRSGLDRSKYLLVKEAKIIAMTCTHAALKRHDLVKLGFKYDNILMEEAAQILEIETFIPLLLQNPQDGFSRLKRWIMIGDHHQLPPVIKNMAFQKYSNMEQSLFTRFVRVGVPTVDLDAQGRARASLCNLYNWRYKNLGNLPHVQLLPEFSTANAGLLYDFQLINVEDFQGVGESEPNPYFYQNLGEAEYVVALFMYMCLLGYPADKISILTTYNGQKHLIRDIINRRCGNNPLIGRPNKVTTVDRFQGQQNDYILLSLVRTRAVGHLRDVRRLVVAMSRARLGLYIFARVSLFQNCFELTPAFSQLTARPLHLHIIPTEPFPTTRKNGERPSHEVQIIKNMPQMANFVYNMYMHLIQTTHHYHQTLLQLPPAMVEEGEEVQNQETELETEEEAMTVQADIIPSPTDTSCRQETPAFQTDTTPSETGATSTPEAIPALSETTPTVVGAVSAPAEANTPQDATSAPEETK
# UniProt P84085: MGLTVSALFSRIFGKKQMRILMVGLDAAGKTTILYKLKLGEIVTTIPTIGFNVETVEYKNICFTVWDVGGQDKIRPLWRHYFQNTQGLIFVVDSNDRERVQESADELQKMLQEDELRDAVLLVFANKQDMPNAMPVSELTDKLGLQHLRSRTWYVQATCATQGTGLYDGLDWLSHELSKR
# UniProt Q9BPX5, whole entry, looked up: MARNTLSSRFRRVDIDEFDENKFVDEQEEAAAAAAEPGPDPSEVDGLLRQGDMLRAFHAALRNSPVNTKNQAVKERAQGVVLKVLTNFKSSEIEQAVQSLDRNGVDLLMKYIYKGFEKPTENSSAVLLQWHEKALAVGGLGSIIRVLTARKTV
# UniProt Q9NVT9: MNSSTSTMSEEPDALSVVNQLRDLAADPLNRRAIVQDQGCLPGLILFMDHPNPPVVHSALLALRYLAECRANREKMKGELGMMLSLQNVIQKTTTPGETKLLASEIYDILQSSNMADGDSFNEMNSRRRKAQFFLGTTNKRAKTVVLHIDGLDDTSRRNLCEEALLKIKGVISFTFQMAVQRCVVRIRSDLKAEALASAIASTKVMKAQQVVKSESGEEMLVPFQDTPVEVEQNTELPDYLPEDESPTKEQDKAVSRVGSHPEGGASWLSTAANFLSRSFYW
# UniProt Q13017, whole entry, looked up: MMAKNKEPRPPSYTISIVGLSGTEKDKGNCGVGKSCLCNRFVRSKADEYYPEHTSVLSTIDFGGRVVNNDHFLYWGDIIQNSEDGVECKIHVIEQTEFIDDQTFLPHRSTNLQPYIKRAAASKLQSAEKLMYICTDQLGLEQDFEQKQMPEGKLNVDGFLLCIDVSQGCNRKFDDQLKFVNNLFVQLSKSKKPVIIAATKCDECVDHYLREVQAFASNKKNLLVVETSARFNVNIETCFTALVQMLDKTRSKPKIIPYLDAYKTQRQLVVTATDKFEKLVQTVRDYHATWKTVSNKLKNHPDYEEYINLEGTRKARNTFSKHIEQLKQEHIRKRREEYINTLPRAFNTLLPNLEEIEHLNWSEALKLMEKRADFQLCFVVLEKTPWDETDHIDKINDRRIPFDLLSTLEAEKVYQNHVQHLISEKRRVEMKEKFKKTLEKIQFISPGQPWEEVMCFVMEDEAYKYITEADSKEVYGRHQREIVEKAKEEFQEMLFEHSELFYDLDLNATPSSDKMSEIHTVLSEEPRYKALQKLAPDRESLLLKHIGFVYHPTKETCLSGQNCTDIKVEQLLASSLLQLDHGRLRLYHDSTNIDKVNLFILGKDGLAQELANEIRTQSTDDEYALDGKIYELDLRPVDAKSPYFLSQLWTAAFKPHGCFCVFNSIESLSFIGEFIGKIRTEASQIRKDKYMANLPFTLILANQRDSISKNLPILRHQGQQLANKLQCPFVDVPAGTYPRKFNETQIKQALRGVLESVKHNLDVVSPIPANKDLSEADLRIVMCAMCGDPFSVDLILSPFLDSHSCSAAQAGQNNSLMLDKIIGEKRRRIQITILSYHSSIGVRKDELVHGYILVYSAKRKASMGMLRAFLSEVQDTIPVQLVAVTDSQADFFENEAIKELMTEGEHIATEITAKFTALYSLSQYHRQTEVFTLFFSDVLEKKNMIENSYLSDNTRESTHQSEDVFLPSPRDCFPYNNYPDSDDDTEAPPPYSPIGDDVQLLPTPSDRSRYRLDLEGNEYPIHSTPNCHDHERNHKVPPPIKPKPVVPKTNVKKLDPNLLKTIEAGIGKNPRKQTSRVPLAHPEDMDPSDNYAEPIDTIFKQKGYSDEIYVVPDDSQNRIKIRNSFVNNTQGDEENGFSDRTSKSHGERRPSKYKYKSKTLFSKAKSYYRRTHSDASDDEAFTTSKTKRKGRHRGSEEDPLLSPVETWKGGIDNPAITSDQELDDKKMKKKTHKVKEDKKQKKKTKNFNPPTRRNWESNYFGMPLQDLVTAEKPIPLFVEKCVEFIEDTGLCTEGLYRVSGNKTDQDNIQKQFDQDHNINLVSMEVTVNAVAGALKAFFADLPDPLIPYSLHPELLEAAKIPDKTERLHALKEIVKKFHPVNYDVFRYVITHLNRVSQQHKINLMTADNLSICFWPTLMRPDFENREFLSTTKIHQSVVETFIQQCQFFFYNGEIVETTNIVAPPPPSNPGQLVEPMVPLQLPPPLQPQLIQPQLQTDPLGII
# UniProt Q9NRW3: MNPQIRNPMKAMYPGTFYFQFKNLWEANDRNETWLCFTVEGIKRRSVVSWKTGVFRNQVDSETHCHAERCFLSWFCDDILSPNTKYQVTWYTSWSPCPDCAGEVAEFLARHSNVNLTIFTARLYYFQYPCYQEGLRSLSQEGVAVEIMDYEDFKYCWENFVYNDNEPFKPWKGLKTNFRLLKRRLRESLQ
# UniProt P18085: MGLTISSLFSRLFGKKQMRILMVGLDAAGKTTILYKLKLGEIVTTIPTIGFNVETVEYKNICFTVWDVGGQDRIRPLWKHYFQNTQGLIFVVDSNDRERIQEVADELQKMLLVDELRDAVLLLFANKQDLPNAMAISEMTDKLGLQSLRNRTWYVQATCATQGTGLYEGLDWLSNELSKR
# UniProt Q9BUR5: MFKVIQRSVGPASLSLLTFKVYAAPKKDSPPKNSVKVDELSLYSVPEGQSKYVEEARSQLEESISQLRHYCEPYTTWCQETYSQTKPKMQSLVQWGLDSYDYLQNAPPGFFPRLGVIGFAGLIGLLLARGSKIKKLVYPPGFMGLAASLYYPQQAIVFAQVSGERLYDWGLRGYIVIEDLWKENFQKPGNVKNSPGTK
# UniProt Q4LE39: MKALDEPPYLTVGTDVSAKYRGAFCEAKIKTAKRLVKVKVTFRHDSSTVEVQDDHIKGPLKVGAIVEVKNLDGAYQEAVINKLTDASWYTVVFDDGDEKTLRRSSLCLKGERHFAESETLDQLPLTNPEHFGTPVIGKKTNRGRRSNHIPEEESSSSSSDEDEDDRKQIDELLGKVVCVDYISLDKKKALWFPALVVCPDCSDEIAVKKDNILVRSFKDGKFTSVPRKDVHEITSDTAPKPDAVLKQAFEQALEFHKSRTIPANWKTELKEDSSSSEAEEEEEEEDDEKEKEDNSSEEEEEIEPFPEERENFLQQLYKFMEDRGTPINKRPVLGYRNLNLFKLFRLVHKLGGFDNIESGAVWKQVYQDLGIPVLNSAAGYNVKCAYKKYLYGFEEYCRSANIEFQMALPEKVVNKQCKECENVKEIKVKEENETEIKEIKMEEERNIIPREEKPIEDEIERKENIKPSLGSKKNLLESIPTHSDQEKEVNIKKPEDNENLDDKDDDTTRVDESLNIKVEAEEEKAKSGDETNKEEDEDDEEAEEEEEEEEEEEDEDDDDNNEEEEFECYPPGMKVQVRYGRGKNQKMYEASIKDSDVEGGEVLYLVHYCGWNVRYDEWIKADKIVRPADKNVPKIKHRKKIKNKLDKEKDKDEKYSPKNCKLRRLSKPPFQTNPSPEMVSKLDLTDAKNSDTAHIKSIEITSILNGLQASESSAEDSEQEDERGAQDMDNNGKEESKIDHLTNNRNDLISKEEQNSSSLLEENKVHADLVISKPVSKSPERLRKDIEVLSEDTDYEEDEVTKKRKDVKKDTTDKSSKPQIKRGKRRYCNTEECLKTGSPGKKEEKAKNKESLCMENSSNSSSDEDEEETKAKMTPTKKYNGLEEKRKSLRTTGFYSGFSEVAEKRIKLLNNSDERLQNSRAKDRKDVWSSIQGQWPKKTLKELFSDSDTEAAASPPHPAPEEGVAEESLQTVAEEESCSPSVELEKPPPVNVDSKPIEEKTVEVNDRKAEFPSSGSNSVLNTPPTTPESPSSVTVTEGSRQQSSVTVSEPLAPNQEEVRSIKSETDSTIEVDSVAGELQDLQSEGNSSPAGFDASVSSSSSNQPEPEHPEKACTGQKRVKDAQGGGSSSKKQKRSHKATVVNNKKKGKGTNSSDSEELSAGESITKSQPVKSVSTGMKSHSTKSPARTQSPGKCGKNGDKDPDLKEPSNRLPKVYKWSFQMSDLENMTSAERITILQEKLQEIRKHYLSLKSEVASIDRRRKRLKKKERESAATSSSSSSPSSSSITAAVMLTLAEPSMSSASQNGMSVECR
# The list shows a part of the results.
# Tests used:
# Experiment in all cases: log2 fold change, soluble protein after heating vs DMSO (PISA); higher = thermal stabilisation; K562 lysate, 10 uM; active = over 0.2 and 3.5 SD of the protein, either way, in both replicates (recomputed)
# [1] = compound: CN1CC[C@H](c2c(O)cc(O)c3c(=O)cc(-c4ccccc4Cl)oc23)[C@H](O)C1 [alvocidib]
# Outline: (§1)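 To prepare the extract, K562 pellets were dounce-homogenised in PBS pH 7.4 with 1 mM MgCl2, giving crude material at 1 mg/mL protein. This was treated with 10 μM compound for 30 min, then heated in aliquots for 3 min over 48°C-58°C before pooling and addition of NP-40 to 0.5% at 4°C. Centrifugation at 21,000xg for 90 min left soluble protein in the supernatant, which TMTpro 16plex LC-MS/MS quantified with equalised channel sums. Results are log-two fold changes in thermal stability compared with solvent controls, from duplicates.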
# [2] = compound: CN1CCc2c(c3ccccc3n2Cc2ccc(C(=O)NO)cc2)C1 [Tubastatin A]
# Outline: as §1
# [3] = compound: CNC(=O)C1=CC=CC=C1NC2=NC(=NC=C2Cl)NC3=C(C=C(C=C3)N4CCOCC4)OC
# Outline: as §1
# [4] = compound: CNC(=O)c1ccc(Nc2ncc(C(F)(F)F)c(NCc3nccnc3N(C)S(C)(=O)=O)n2)cc1 [defactinib]
# Outline: as §1
# [5] = compound: CNc1nc(-c2ccc3c(N)n[nH]c3c2)cc(N2C[C@@H](C(=O)NC3CCCCC3)CC[C@H]2C)n1
# Outline: as §1
# [6] = compound: COC(=O)N[C@@H](C)CNc1nccc(-c2cn(C(C)C)nc2-c2cc(Cl)cc(NS(C)(=O)=O)c2F)n1 [encorafenib]
# Outline: as §1
# [7] = compound: COC(=O)[C@H](CCSC)NC(=O)C1=C(C=C(C=C1)NC[C@H](CS)N)C2=CC=CC=C2
# Outline: as §1
# [8] = compound: COc1cc(Nc2ncc3c(n2)-c2ccc(Cl)cc2C(c2c(F)cccc2OC)=NC3)ccc1C(=O)O [alisertib]
# Outline: as §1
# [9] = compound: COc1cc2nc(-c3cc(F)ccc3O)nc(N[C@@H]3CNC[C@H]3C(C)(C)O)c2cc1OC
# Outline: as §1
# [10] = compound: COc1cc2ncnc(Nc3ccc(F)c(Cl)c3)c2cc1OCCCN1CCOCC1 [gefitinib]
# Outline: as §1
# [11] = compound: CS(=O)(=O)CCNCc1ccc(-c2ccc3ncnc(Nc4ccc(OCc5cccc(F)c5)c(Cl)c4)c3c2)o1 [lapatinib]
# Outline: as §1
# [12] = compound: CS(=O)(=O)N1CCN(Cc2cc3nc(-c4cccc5[nH]ncc45)nc(N4CCOCC4)c3s2)CC1 [pictilisib]
# Outline: as §1
# [13] = compound: C[C@@H](Oc1cc(-c2cnn(C3CCNCC3)c2)cnc1N)c1c(Cl)ccc(F)c1Cl [crizotinib]
# Outline: as §1
# [14] = compound: C[C@H](C1=CC=C(C=C1)C(=O)NC2=C3C=CNC3=NC=C2)N
# Outline: as §1
# [15] = compound: C[C@H](Nc1ncnc2nc[nH]c12)c1cc2cccc(Cl)c2c(=O)n1-c1ccccc1 [duvelisib]
# Outline: as §1
# [16] = compound: Cc1cc(Nc2cc(CN3CCOCC3)c3nc(C)c(Cc4ccc(Cl)cc4F)n3n2)n[nH]1 [gandotinib]
# Outline: as §1
# [17] = compound: Cc1cc(Nc2cc(N3CCN(C)CC3)nc(Sc3ccc(NC(=O)C4CC4)cc3)n2)n[nH]1 [tozasertib]
# Outline: as §1
# [18] = compound: Cc1ccc(-n2nc(C(C)(C)C)cc2NC(=O)Nc2ccc(OCCN3CCOCC3)c3ccccc23)cc1 [doramapimod]
# Outline: as §1
# [19] = compound: Cc1ccc(NC(=O)c2ccc(CN3CC[C@H](N(C)C)C3)c(C(F)(F)F)c2)cc1Nc1nccc(-c2cncnc2)n1 [bafetinib]
# Outline: as §1
# [20] = compound: Cc1cccc(CC(=O)N2CCc3c2ccc(-c2cn(C)c4ncnc(N)c24)c3F)n1
# Outline: as §1
Target,log2 fold change [1],log2 fold change [2],log2 fold change [3],log2 fold change [4],log2 fold change [5],log2 fold change [6],log2 fold change [7],log2 fold change [8],log2 fold change [9],log2 fold change [10],log2 fold change [11],log2 fold change [12],log2 fold change [13],log2 fold change [14],log2 fold change [15],log2 fold change [16],log2 fold change [17],log2 fold change [18],log2 fold change [19],log2 fold change [20]
ARHGEF10 (UniProt O15013),inactive: -0.116,inactive: 0.046,inactive: 0.042,inactive: -0.141,inactive: -0.019,inactive: -0.064,inactive: -0.018,inactive: 0.016,inactive: 0.09,inactive: 0.117,inactive: -0.041,inactive: 0.151,inactive: -0.009,inactive: -0.08,inactive: 0.088,inactive: 0.124,inactive: 0.047,inactive: 0.001,inactive: -0.419,inactive: 0.036
ARL1 (UniProt P40616),inactive: -0.017,inactive: -0.025,inactive: 0.079,inactive: 0.001,inactive: 0.088,inactive: 0.111,active: -0.293,inactive: 0.081,inactive: 0.053,inactive: 0.057,inactive: 0.001,inactive: 0.051,inactive: -0.028,inactive: -0.056,inactive: 0.001,inactive: 0.159,inactive: 0.004,active: 0.228,inactive: -0.027,inactive: 0.096
APOBEC3D (UniProt Q96AK3),inactive: -0.01,inactive: -0.041,inactive: -0.032,inactive: 0.004,inactive: 0.026,inactive: 0.051,inactive: -0.078,inactive: 0.002,inactive: -0.027,inactive: -0.023,inactive: -0.033,inactive: -0.021,inactive: 0.022,inactive: 0.019,inactive: -0.033,inactive: -0.073,inactive: 0.03,inactive: -0.004,inactive: -0.114,inactive: 0.1
ARRB2 isoform 3 (UniProt P32121),inactive: -0.038,inactive: 0.028,inactive: -0.011,inactive: -0.026,inactive: 0.066,inactive: -0.011,inactive: -0.013,inactive: -0.01,inactive: 0.036,inactive: 0.028,inactive: -0.031,inactive: -0.058,inactive: -0.03,inactive: -0.127,inactive: 0.022,inactive: 0.031,inactive: -0.031,inactive: 0.024,inactive: 0.018,inactive: 0.034
ARHGAP18 (UniProt Q8N392),inactive: -0.013,inactive: 0.008,inactive: 0.022,inactive: -0.022,inactive: 0.053,inactive: 0.007,inactive: 0.093,inactive: -0.005,inactive: 0,inactive: -0.019,inactive: -0.023,inactive: -0.024,inactive: -0.05,inactive: -0.012,inactive: -0.013,inactive: 0.002,inactive: 0.022,inactive: 0.078,inactive: -0.04,inactive: 0.031
AQR (UniProt O60306),inactive: 0.01,inactive: -0.04,inactive: 0.015,inactive: 0.015,inactive: -0.013,inactive: -0.016,inactive: 0.062,inactive: -0.003,inactive: 0.016,inactive: -0.008,inactive: -0.032,inactive: -0.056,inactive: -0.053,inactive: 0.015,inactive: 0.034,inactive: -0.039,inactive: 0.018,inactive: 0.014,inactive: -0.052,inactive: 0.007
ARF5 (UniProt P84085),inactive: -0.043,inactive: 0.069,inactive: 0.06,inactive: 0.026,inactive: 0.061,inactive: 0.013,inactive: -0.001,inactive: 0.019,inactive: -0.011,inactive: -0.028,inactive: 0.018,inactive: 0.034,inactive: 0.019,inactive: -0.076,inactive: 0.011,inactive: 0.075,inactive: -0.008,inactive: 0.144,inactive: 0.014,inactive: 0.025
ARPC5L (UniProt Q9BPX5),inactive: -0.034,inactive: 0.036,inactive: -0.014,inactive: -0.007,inactive: 0.033,inactive: -0.018,inactive: -0.042,inactive: -0.047,inactive: 0.005,inactive: 0.009,inactive: 0.026,inactive: 0.03,inactive: -0.007,inactive: 0.008,inactive: -0.004,inactive: -0.013,inactive: -0.018,inactive: 0.006,inactive: 0.06,inactive: 0.035
ARMC1 (UniProt Q9NVT9),inactive: -0.032,inactive: -0.014,inactive: 0.011,inactive: -0.024,inactive: 0.039,inactive: 0.016,inactive: -0.07,inactive: 0.003,inactive: 0.01,inactive: -0.029,inactive: 0.017,inactive: -0.019,inactive: -0.03,inactive: -0.021,inactive: -0.006,inactive: 0.012,inactive: 0.004,inactive: 0.031,inactive: -0.002,inactive: 0.034
APEH (UniProt P13798),inactive: 0.011,inactive: 0.011,inactive: 0,inactive: -0.013,inactive: 0.013,inactive: -0.005,inactive: -0.015,inactive: -0.015,inactive: -0.01,inactive: 0,inactive: -0.026,inactive: -0.023,inactive: 0.043,inactive: 0.023,inactive: 0.016,inactive: 0.022,inactive: -0.01,inactive: -0.003,inactive: 0.015,inactive: -0.04
ARHGAP5 (UniProt Q13017),inactive: 0.007,inactive: 0.01,inactive: -0.082,inactive: 0.037,inactive: -0.005,inactive: 0.082,inactive: 0,inactive: 0.005,inactive: 0.059,inactive: -0.018,inactive: -0.019,inactive: -0.053,inactive: -0.047,inactive: 0.014,inactive: -0.075,inactive: -0.006,inactive: -0.033,inactive: 0.077,inactive: -0.007,inactive: 0.023
APOBEC3C (UniProt Q9NRW3),inactive: -0.019,inactive: -0.121,inactive: 0.018,inactive: 0.013,inactive: -0.007,inactive: 0.047,inactive: -0.067,inactive: 0.009,inactive: 0.003,inactive: -0.005,inactive: 0.011,inactive: 0.033,inactive: -0.09,inactive: -0.058,inactive: 0.021,inactive: 0.066,inactive: -0.055,inactive: 0.1,inactive: -0.023,inactive: 0.153
APTX (UniProt Q7Z2E3),inactive: -0.022,inactive: -0.062,inactive: 0.022,inactive: -0.052,inactive: 0.115,inactive: 0.094,inactive: 0.081,inactive: -0.001,inactive: 0.026,inactive: 0.052,inactive: -0.074,inactive: -0.017,inactive: -0.017,inactive: 0.049,inactive: 0.056,inactive: 0,inactive: 0.126,inactive: 0.001,inactive: -0.05,inactive: -0.015
ARF4 (UniProt P18085),inactive: -0.073,inactive: -0.004,inactive: 0.005,inactive: 0.017,inactive: 0.112,inactive: 0.035,inactive: 0.159,inactive: -0.025,inactive: 0.014,inactive: 0.025,inactive: 0.012,inactive: 0.003,inactive: -0.032,inactive: -0.121,inactive: 0.05,inactive: 0.078,inactive: 0.053,inactive: 0.189,inactive: -0.019,inactive: 0.1
APOO (UniProt Q9BUR5),inactive: 0.066,inactive: -0.083,inactive: 0.014,inactive: 0.003,inactive: 0.001,inactive: 0.07,inactive: 0.012,inactive: 0.006,inactive: -0.03,inactive: -0.033,inactive: -0.058,inactive: -0.032,inactive: 0.028,inactive: -0.034,inactive: 0.002,inactive: -0.052,inactive: 0.182,inactive: -0.005,inactive: -0.03,inactive: 0.022
ARID4B (UniProt Q4LE39),inactive: 0.003,inactive: 0.03,inactive: 0.011,inactive: -0.007,inactive: 0.03,inactive: -0.009,inactive: 0.008,inactive: 0.005,inactive: 0.002,inactive: 0.026,inactive: -0.023,inactive: -0.001,inactive: 0.024,inactive: 0.025,inactive: 0.001,inactive: -0.003,inactive: -0.062,inactive: 0.022,inactive: 0.002,inactive: 0.01
